All entries are inconclusive by the source's own rule. Clear calls are listed elsewhere. The calls were made as follows: active = hit-call score of the fitted dose curve at least 0.9, where 1 is the maximum; inconclusive = response in the unintended direction; inactive = score below 0.9. Where the call is inconclusive, the potency comes from a doubtful curve fit.
target: human Checkpoint Kinase 1 (CHK1), CHEK1 (gene 1111) (UniProt O14757); assay: NVS_ENZ_hCHK1: NovaScreen (NVS) Enzymatic Assay for human Checkpoint Kinase 1 (CHK1)
Method: NVS_ENZ_hCHK1 is a biochemical, single-readout assay that uses extracted gene-proteins in a cell-free assay. Measurements were taken 1 hour after chemical dosing in a 96-well plate.NVS_ENZ_hCHK1 is one of one assay component(s) measured or calculated from the NVS_ENZ_hCHK1 assay. It is designed to make measurements of enzyme activity, a form of enzyme reporter, as detected with fluorescence intensity signals by Fluorescence and electrophoretic mobility shift technology.Data from the assay component NVS_ENZ_hCHK1 was analyzed into 1 assay endpoint. This assay endpoint, NVS_ENZ_hCHK1, was analyzed in the positive analysis fitting direction relative to DMSO as the negative control and baseline of activity. Using a type of enzyme reporter, loss-of-signal activity can be used to understand changes in the enzymatic activity as they relate to the gene CHEK1. Furthermore, this assay endpoint can be referred to as a primary readout, because this assay has produced multiple assay endpoints where this one serves a enzymatic activity function. To generalize the intended target to other relatable targets, this assay endpoint is annotated to the kinase intended target family, where the subfamily is serine/threonine kinase. […]

Chains of the proteins cited; added tags and fusions are not shown. Lines headed by an entry give the natural chain unless they say otherwise; changes in a name come on top.
UniProt O14757: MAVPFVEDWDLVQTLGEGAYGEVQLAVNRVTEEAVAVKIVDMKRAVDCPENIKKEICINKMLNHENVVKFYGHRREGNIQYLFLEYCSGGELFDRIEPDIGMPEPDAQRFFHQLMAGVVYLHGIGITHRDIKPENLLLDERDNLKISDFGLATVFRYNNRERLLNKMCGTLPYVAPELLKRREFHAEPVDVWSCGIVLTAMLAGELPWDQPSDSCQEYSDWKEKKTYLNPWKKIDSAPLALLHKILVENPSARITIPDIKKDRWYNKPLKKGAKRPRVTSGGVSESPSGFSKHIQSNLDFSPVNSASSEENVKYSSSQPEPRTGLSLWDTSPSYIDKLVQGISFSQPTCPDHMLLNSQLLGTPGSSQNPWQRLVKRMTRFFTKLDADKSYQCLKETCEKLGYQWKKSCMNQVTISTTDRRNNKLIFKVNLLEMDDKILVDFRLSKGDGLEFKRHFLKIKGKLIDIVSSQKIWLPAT

| SMILES | AC50 |
| --- | --- |
| CN(C)NC(=O)CCC(=O)O | inconclusive: 2770 nM |
